Assay results published in PubChem BioAssay (EPA / NIEHS).
Values joined by “and” are separate entries in the source; they are usually repeats but may differ in a detail not shown here. Equal values may be shown once. The inconclusive results got no clear call from the source; some entries with a clear call stand among them for comparison. Where the call is inconclusive, the potency comes from a doubtful curve fit. Active and inactive are the calls of the source. The calls were made as follows: active = hit-call score of the fitted dose curve at least 0.9, where 1 is the maximum; inconclusive = response in the unintended direction; inactive = score below 0.9.

Sequences of proteins named here, by UniProt entry; tags and fusion partners are left off. A change or cut given only in a name is not applied to a line headed by its entry.
UniProt Q92753: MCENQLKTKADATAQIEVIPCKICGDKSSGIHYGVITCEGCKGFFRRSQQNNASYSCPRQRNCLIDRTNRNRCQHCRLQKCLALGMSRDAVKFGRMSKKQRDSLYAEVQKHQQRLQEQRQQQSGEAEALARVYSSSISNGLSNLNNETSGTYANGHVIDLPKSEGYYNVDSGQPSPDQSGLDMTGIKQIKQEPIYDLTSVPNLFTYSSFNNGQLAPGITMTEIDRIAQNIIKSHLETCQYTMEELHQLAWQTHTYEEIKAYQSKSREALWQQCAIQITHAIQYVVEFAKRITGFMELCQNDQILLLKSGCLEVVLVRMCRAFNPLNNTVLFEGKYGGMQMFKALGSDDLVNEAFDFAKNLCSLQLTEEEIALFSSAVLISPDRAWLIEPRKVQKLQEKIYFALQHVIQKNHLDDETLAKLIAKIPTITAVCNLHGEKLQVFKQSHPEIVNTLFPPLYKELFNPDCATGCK
UniProt P51449: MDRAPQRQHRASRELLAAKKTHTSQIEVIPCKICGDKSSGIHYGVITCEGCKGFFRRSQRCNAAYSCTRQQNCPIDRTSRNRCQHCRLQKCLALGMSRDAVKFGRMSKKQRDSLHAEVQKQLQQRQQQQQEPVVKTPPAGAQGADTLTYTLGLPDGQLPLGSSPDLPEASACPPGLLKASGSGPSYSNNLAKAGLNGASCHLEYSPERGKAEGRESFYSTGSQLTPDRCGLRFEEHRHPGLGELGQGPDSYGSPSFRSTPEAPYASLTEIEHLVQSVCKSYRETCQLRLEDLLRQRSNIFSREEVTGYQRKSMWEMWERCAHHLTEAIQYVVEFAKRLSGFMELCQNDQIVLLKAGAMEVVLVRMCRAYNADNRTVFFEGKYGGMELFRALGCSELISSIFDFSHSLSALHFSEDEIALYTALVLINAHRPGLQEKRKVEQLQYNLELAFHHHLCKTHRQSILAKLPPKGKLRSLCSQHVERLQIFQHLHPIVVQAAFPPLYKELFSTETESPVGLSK
UniProt P19793: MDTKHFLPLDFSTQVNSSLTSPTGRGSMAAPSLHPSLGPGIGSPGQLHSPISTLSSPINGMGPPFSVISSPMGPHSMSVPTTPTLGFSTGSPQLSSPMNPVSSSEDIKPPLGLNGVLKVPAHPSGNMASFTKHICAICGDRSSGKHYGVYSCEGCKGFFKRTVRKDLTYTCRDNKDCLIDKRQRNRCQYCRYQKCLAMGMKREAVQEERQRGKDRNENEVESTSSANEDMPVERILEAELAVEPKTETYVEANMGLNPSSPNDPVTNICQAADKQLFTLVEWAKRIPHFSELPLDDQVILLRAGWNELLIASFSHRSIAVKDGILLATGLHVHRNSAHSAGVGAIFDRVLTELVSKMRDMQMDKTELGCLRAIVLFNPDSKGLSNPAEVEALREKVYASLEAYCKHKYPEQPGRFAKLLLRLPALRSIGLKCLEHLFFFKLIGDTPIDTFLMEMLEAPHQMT
UniProt P28702: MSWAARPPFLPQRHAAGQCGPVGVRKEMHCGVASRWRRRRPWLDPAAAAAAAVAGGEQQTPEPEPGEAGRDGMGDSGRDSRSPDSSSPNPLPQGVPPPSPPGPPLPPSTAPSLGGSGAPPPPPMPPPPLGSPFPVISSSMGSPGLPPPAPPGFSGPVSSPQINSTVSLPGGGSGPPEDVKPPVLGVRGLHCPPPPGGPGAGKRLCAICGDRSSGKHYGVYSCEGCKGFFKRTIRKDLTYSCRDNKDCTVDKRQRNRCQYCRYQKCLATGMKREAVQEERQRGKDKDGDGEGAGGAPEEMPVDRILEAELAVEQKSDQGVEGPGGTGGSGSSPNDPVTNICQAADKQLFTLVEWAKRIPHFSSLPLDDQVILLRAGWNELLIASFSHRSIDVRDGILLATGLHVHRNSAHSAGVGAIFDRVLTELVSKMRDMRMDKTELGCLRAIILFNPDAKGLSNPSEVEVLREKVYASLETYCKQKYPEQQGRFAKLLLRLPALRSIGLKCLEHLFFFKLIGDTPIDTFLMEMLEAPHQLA
UniProt P10827: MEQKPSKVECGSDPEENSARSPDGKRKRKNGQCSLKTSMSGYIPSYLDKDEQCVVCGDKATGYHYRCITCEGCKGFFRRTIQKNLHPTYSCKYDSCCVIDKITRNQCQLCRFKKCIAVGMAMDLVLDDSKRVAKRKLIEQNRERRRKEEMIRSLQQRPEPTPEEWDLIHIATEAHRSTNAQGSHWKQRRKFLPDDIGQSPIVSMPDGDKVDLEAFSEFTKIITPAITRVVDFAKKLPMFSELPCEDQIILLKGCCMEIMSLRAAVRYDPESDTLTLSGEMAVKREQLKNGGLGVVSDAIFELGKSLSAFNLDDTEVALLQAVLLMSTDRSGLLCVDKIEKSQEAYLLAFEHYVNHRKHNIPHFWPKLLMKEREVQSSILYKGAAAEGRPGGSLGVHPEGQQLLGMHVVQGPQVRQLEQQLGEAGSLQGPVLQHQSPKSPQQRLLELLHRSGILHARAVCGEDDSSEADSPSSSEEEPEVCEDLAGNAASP
UniProt P11473: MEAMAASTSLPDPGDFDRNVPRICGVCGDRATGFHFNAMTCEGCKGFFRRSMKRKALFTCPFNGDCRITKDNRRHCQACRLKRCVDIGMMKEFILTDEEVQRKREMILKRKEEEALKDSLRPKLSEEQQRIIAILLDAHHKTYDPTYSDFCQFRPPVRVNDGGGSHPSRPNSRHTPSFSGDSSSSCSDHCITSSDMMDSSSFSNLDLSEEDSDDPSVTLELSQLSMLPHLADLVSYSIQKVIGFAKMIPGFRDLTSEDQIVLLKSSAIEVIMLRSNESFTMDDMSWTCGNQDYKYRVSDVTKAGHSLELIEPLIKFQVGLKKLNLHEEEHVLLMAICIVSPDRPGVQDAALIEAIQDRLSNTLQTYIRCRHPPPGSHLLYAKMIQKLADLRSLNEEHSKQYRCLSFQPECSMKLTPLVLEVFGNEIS

Assays:
[1] = target: human RAR-related Orphan Receptor beta (RORb), RORB (gene 6096) (UniProt Q92753); assay: ATG_RORb_TRANS: Attagene TRANS-FACTORIAL HepG2 Assay for human RAR-related Orphan Receptor beta (RORb) (AID 2283010);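 as to AC50: potency for increased reporter mRNA meaning activation of RORb-Gal4 chimera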
Outline: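 Read-out is reporter mRNA induction, quantified by RT-PCR with fluorescent capillary electrophoresis, 24 h post-dose in transiently transfected HepG2 expressing exogenous NR-Gal4 chimera. Activity fitted upward versus DMSO.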

[2] = target: human RAR-related Orphan Receptor gamma (RORg), RORC (gene 6097) (UniProt P51449); assay: ATG_RORg_TRANS: Attagene TRANS-FACTORIAL HepG2 Assay for human RAR-related Orphan Receptor gamma (RORg) (AID 2283011);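 as to AC50: potency for induction of reporter transcripts above DMSO so activators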
Outline: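 Chimeric RORg-Gal4 transactivation in transfected HepG2; 24 h exposure; RT-PCR/capillary electrophoresis readout of reporter mRNA, DMSO baseline.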

[3] = target: Retinoic acid receptor RXR-alpha (Homo sapiens) (UniProt P19793); assay: ATG_RXRa_TRANS: Attagene TRANS-FACTORIAL HepG2 Assay for human Retinoid X Receptor alpha (RXRa) (AID 2283012)
Outline: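 TRANS format reporting activity of exogenous RXRa-Gal4 chimera in transiently transfected HepG2, 24 h exposure. Reporter transcripts quantified by RT-PCR with capillary electrophoresis, with gain of signal scored relative to DMSO.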

[4] = target: human Retinoid X Receptor beta (RXRb), RXRB (gene 6257) (UniProt P28702); assay: ATG_RXRb_TRANS: Attagene TRANS-FACTORIAL HepG2 Assay for human Retinoid X Receptor beta (RXRb) (AID 2283013)
Outline: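 Readout is reporter transcript induction after 24 h dosing. It is measured by RT-PCR of total RNA followed by fluorescent capillary electrophoresis. HepG2 liver cells carry transfected multiple reporter units driven by an exogenous RXRb-Gal4 fusion; activity is relative to DMSO.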

[5] = target: human Thyroid Receptor alpha (THRa1), THRA (gene 7067) (UniProt P10827); assay: ATG_THRa1_TRANS: Attagene TRANS-FACTORIAL HepG2 Assay for human Thyroid Receptor alpha (THRa1) (AID 2283014)
Outline: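 Measured here is mRNA from a GAL4-UAS reporter in transfected HepG2 cells carrying a Gal4-fused receptor, 24 h post-dose. DMSO served as negative control and baseline.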

[6] = target: human Vitamin D Receptor (VDR), VDR (gene 7421) (UniProt P11473); assay: ATG_VDR_TRANS: Attagene TRANS-FACTORIAL HepG2 Assay for human Vitamin D Receptor (VDR) (AID 2283022)
Outline: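 Multiplexed TRANS reporter in HepG2; 24 h treatment; reporter mRNA by RT-PCR plus capillary electrophoresis; upregulation scored relative to DMSO.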

With `O=C1CCCCCCCCCCC(=O)OCCO1` the outcome [1] was “inactive”, the AC50 [2] was inconclusive: 100 µM and the outcome [4] was “inactive”. The AC50 [5] was inconclusive: 0.0673 µM and the AC50 [6] was inconclusive: 100 µM.
With `NC(=Nc1ccccc1)Nc1ccccc1` the AC50 [1] was inconclusive: 2.47 µM, the AC50 [2] was inconclusive: 7.17 µM and the outcome [3] was “inactive”. The AC50 [5] was inconclusive: 100 µM.
With `CCCCCC(=O)O[C@]1(C(C)=O)CC[C@H]2[C@@H]3CCC4=CC(=O)CC[C@]4(C)[C@H]3CC[C@@]21C` the AC50 [1] was inconclusive: 7.91 µM, the AC50 [2] was inconclusive: 27.5 µM and the AC50 [4] was inconclusive: 9.93 µM. For the same compound, the AC50 [5] was inconclusive: 99.5 µM and the outcome [6] was “inactive”.
`c1ccc2c(c1)Cc1ccccc1-2` was tested, and the AC50 [1] was inconclusive: 0.00914 µM, the AC50 [2] was inconclusive: 3.64 µM and the AC50 [4] was active: 61.7 µM. The AC50 [5] was inconclusive: 0.187 µM.
With `CCc1ccc2c(c1)C(=O)c1ccccc1C2=O` the AC50 [1] was inconclusive: 100 µM, the AC50 [2] was inconclusive: 19.8 µM and the outcome [3] was “inactive”. For the same compound, the outcome [4] was “inactive”.
In the case of `O=S(=O)(O)c1ccc2ccccc2c1`, the AC50 [1] is reported as inconclusive: 170 µM, the outcome [1] is reported as “inactive” and the AC50 [3] is reported as inconclusive: 22 µM. The AC50 [4] was inconclusive: 100 µM and inconclusive: 91 µM, the AC50 [5] was inconclusive: 0.669 µM and the outcome [5] was “inactive”. For the same compound, the AC50 [6] was inconclusive: 100 µM.
In the case of `Cc1ccc(S)cc1`, the AC50 [1] is reported as inconclusive: 100 µM, the AC50 [2] is reported as inconclusive: 100 µM and the outcome [3] is reported as “inactive”.
`O=c1c(-c2ccc(O)cc2)coc2cc(O)ccc12` was tested, and the AC50 [1] was inconclusive: 100 µM, the outcome [1] was “inactive” and the AC50 [2] was inconclusive: 181 µM. For the same compound, the outcome [2] was “inactive” and the AC50 [4] was inconclusive: 24.1 µM and inconclusive: 100 µM.
For `CCOC(=O)c1ccccc1`, the outcome [1] was “inactive”, the outcome [2] was “inactive” and the AC50 [4] was inconclusive: 0.0769 µM. The AC50 [5] was inconclusive: 100 µM and the AC50 [6] was inconclusive: 100 µM.
With `NC(=O)Cn1c(=O)cc(CCN2CCN(c3nccc4sccc34)CC2)c2ccc(F)cc21` the AC50 [1] was inconclusive: 20.1 µM, the AC50 [2] was inconclusive: 18.7 µM and the outcome [3] was “inactive”. The AC50 [4] was inconclusive: 100 µM and the outcome [6] was “inactive”.
In the case of `CC1COc2ccccc2N1C(=O)C(Cl)Cl` (stereo unspecified), the AC50 [1] is reported as inconclusive: 100 µM, the AC50 [2] is reported as inconclusive: 100 µM and the AC50 [4] is reported as inconclusive: 100 µM.
With `O=C(O)CCCCCCCCCCC(=O)O` the outcome [1] was “inactive”, the AC50 [2] was inconclusive: 100 µM and the AC50 [3] was inconclusive: 100 µM. The AC50 [4] was inconclusive: 0.231 µM and the AC50 [6] was inconclusive: 100 µM.
For `Cc1c(C)c2c(c(C)c1O)CCC(C)(COc1ccc(CC3SC(=O)NC3=O)cc1)O2` (stereo unspecified), the AC50 [1] was inconclusive: 3.09 µM, the outcome [3] was “inactive” and the AC50 [4] was inconclusive: 6.83 µM. The AC50 [5] was inconclusive: 0.714 µM.
`CCCCCCCCCCCCCCCCOS(=O)(=O)O` was tested, and the AC50 [1] was inconclusive: 50 µM, the AC50 [2] was inconclusive: 87.4 µM and the outcome [5] was “inactive”.
With `CN(C)CCCN(C)CCCN(C)C` the AC50 [3] was inconclusive: 182 µM, the AC50 [4] was active: 23.8 µM and the AC50 [5] was inconclusive: 100 µM.
`COc1ccc2sc(C(=O)Nc3nnn[nH]3)c(OC(C)C)c2c1` was tested, and the AC50 [1] was inconclusive: 100 µM, the outcome [4] was “inactive” and the AC50 [5] was inconclusive: 100 µM. The outcome [6] was “inactive”.
In the case of `Nc1cccc(S(=O)(=O)c2cccc(N)c2)c1`, the outcome [1] is reported as “inactive” and the outcome [5] is reported as “inactive”.
`CC(=O)OC(C)(C)C` was tested, and the outcome [2] was “inactive”, the outcome [3] was “inactive” and the outcome [4] was “inactive”.
